First the molecules themselves.
B1: Pyrin (mouse, BMDM) (protein, UniProt Q9JJ26 1-767)
chain: MAKTLGDHLLNTLEELLPYDFEKFKFKLQNTSLEKGHSKIPRGHMQMARPVKLASLLITYYGEEYAVRLTLQILRATNQRQLAEELRKATGTEHLIEENRVGGSVQSSVENKAKSVKVPDVPEGDGTQQNNDESDTLPSSQAEVGKGPQKKSLTKRKDQRGPESLDSQTKPWTRSTAPLYRRTQGTQSPGDKESTASAQLRRNVSSAGRLQGLYNNAPGRRESKKAEVYVYLPSGKKRPRSLEITTYSREGEPPNSEVLPTQEETRNGSLIRMRTATLNGRTTGALEKGTGIPEHSMVLDEKTFRNMSSKTSLIGEERCPTSWTENGNGSPETTESSGETAGSILSDPEVPLSLCEKPAKTPEDPASLGQAACEGRSQDKAVCPLCHTQEGDLRGDTCVQSSCSCSIAPGDPKASGRCSICFQCQGLLARKSCEAQSPQSLPQCPRHMKQVLLLFCEDHREPICLICRLSLEHQGHRVRPIEEAALEYKEQIREQLERLREMRGYVEEHRLQGDKKTDDFLKQTEIQKQKISCPLEKLYQLLEKQEQLFVTWLQELSQTISKVRETYYTRVSLLDEMIEELEAKQDQPEWDLMQDIGITLHRAKMMSASELLDTPPGVKEKLHLLYQKSKSVEKNMQCFSEMLSSEMAFSASDVAKWEGRQPSATQVQGLVPTVHLKCDGAHTQDCDVVFYPEREAGGSEPKDYLHPQPAQDTPELHEIHSRNNKRKFKSFLKWKPSFSRTDWRLRTCCYRDLDQAAAHPNLIFSMI

Protein sequences, listed by entry. Tags and fused reporters are not part of them.
UniProt P17778: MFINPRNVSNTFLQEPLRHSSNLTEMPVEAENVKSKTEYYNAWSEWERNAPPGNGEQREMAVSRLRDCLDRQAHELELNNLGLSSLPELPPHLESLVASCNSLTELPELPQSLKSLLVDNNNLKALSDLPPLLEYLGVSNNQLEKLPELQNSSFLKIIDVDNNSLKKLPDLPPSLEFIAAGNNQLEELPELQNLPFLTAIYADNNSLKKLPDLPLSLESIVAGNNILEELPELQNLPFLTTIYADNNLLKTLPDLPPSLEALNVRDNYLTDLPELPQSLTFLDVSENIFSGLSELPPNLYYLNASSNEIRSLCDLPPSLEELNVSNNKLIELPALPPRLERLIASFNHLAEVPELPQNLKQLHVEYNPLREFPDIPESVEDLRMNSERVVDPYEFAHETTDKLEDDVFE
UniProt Q16512: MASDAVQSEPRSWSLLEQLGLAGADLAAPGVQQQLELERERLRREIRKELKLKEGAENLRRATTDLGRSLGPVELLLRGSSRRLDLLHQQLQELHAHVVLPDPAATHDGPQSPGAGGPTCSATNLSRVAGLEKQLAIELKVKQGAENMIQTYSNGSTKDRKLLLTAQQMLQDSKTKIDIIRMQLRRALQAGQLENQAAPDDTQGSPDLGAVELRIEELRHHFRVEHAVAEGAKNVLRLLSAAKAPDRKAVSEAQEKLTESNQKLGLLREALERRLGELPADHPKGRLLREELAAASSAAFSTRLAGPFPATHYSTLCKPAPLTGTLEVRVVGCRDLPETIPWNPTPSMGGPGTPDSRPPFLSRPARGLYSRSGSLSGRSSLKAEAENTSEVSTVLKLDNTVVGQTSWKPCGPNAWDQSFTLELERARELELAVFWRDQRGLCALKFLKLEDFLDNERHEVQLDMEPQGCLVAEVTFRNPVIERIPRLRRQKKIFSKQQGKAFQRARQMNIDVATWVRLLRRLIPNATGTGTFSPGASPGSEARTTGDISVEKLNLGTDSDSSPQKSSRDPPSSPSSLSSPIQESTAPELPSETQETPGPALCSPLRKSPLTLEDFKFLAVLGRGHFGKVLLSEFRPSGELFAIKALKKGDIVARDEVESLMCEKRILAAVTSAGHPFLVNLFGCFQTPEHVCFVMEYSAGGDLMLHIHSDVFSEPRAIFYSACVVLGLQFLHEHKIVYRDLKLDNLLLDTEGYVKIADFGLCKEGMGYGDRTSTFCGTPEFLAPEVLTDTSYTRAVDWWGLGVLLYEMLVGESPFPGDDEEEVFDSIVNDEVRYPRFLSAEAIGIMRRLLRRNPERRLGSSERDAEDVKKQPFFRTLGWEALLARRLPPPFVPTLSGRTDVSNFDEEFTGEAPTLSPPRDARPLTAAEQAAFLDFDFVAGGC
UniProt Q15418: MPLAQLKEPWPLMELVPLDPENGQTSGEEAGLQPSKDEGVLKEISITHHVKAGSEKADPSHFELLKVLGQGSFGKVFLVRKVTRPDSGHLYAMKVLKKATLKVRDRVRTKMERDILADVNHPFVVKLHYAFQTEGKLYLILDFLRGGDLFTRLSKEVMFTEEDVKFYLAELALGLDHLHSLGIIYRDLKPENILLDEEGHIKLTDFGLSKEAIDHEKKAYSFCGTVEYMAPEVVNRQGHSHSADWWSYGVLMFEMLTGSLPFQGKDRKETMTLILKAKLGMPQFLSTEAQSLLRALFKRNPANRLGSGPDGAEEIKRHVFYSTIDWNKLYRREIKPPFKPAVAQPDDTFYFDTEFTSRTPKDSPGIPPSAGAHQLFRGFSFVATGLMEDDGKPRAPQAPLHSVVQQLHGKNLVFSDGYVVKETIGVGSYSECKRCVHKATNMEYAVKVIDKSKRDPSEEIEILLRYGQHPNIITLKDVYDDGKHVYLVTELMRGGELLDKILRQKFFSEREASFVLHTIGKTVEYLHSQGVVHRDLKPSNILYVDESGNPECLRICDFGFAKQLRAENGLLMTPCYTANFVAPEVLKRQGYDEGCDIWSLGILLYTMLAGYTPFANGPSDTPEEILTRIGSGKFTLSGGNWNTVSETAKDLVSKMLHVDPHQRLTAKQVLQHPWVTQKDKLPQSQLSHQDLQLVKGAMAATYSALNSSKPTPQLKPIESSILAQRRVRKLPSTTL
UniProt P18653: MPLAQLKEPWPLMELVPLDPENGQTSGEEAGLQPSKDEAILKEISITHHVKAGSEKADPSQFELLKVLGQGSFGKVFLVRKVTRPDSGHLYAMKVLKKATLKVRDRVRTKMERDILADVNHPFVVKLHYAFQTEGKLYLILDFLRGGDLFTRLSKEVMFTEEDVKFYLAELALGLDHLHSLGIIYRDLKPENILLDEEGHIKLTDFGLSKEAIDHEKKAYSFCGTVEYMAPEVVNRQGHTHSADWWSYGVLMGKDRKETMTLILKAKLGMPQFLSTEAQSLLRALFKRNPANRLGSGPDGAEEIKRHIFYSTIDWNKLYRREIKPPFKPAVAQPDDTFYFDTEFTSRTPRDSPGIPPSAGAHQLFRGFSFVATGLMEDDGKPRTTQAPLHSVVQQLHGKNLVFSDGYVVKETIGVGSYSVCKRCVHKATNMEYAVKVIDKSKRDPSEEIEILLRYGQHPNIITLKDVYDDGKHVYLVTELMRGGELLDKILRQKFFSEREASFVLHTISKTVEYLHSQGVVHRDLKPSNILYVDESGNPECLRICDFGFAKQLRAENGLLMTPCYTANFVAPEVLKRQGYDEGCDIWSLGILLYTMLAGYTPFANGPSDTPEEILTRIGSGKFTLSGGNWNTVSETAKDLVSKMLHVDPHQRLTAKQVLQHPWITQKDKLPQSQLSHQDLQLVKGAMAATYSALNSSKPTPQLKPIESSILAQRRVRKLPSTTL
UniProt P46940: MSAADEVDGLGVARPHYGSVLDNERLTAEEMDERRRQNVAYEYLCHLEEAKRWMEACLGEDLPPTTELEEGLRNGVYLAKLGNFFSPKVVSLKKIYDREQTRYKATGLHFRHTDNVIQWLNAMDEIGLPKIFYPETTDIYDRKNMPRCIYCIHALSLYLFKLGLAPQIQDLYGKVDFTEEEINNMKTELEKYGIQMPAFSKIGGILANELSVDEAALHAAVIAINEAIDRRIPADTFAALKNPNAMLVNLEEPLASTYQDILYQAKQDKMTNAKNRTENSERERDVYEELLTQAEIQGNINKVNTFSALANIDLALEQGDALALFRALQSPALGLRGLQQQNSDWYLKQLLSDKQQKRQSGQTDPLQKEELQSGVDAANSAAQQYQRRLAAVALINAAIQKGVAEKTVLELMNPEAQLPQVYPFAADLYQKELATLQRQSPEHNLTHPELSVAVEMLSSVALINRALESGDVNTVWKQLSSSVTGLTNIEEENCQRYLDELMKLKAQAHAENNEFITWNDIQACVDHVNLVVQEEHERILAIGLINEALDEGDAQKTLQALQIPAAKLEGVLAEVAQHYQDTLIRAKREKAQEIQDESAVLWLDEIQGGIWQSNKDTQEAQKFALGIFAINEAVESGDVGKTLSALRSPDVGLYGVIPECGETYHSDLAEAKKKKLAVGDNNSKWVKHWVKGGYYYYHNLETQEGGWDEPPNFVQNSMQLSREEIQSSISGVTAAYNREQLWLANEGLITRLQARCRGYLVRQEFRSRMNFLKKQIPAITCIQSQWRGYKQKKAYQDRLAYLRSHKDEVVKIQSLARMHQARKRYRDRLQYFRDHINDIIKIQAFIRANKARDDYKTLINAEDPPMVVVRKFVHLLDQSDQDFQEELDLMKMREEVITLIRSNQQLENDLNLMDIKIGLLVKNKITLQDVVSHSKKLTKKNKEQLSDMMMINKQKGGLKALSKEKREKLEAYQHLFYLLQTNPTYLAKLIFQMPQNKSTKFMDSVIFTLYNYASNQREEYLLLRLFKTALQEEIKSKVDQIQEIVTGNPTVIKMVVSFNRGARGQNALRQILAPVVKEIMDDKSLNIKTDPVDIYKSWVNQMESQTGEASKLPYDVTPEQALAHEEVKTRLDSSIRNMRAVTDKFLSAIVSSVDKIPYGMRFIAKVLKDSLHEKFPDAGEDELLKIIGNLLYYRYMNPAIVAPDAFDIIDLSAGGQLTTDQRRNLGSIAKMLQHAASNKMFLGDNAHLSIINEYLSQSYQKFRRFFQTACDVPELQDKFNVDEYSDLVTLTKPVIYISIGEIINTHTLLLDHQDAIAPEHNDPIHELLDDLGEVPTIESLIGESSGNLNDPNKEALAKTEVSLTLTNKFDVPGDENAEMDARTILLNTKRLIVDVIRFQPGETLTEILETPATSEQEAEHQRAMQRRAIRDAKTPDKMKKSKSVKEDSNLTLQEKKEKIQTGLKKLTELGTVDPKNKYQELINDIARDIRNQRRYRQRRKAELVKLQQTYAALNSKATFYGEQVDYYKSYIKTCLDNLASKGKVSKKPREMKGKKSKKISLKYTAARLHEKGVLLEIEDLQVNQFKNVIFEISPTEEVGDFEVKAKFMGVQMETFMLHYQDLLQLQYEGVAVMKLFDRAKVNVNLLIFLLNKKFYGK
UniProt Q9JKF1: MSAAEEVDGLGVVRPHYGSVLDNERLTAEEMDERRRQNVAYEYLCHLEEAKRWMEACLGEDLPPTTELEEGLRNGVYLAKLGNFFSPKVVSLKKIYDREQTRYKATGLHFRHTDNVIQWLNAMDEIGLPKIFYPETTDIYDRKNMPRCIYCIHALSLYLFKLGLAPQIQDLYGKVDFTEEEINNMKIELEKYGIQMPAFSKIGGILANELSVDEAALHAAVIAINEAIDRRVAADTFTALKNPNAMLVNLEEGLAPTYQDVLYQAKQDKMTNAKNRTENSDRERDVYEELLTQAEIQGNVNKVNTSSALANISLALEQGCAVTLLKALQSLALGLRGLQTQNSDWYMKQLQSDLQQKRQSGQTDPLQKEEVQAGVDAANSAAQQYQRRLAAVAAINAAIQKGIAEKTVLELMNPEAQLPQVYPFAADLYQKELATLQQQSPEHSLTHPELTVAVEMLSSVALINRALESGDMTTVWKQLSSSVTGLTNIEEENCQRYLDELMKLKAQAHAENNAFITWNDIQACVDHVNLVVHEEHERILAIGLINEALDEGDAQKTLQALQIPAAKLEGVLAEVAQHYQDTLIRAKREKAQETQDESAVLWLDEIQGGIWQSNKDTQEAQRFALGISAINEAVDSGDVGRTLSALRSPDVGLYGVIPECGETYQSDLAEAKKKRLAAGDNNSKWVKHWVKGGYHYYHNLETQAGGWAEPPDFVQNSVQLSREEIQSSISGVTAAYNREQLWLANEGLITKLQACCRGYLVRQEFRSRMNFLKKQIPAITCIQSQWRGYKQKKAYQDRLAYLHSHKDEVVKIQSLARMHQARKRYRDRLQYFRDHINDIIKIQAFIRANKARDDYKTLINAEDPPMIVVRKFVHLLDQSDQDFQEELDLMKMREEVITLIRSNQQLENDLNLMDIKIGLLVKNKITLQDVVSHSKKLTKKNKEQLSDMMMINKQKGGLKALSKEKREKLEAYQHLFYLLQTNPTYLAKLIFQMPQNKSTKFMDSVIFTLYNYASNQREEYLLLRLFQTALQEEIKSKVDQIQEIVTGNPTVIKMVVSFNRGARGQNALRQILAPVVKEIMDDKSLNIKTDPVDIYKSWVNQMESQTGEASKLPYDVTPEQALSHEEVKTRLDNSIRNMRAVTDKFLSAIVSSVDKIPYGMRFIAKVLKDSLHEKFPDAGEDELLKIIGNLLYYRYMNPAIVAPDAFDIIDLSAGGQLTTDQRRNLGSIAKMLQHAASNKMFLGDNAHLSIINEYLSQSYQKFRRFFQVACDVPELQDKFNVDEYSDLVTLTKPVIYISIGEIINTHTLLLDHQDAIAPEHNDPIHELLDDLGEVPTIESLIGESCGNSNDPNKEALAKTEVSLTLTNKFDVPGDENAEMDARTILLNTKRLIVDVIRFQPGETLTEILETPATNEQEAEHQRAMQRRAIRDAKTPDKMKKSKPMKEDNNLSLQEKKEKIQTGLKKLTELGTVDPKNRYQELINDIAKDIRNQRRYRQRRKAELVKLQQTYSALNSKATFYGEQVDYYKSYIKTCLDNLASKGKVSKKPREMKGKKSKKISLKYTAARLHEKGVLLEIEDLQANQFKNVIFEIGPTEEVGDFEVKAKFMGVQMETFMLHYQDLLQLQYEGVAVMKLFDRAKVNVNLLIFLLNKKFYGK

These are yes or no findings as the source states them, for the method shown. Binding seen in cells or lysates may run through a third protein. Some results given as binding are weak or reduced against the parent protein; the word gives no strength.

This assay has as its target Yersinia pestis effector YopM (Y. pestis) (UniProt P17778). Kind of assay: co-IP.
In the case of “PKN1 kinase (human, THP-1) (from UniProt Q16512 1-942) (enzyme)”, the binding result is listed as “binds”.
Then “PKN1 kinase (mouse, BMDM) (from UniProt P70268 1-946) (enzyme)”, with “binds”.
The same measure for “RSK1 kinase (human, THP-1) (from UniProt Q15418 1-735) (enzyme)”: “binds”.
On to “RSK1 kinase (mouse, BMDM) (from UniProt P18653 1-724) (enzyme)”, for which the binding result was “binds”.
For the molecule “cytoskeletal scaffolding protein Iqgap1 (human, THP-1) (from UniProt P46940 1-1657)”, the binding entry is “binds”.
The same measure for “cytoskeletal scaffolding protein Iqgap1 (mouse, BMDM) (from UniProt Q9JKF1 1-1657)”: “binds”; for B1: “binds”.

Values taken from article PMC5135138.
